Experimental findings from PMC8784505 are described below.

No constants are given. Whether binding was seen depends on the method and setting. Binding seen in cells or lysates may run through a third protein. Some results given as binding are weak or reduced against the parent protein; the word gives no strength. Tags and fused reporters may be left off the sequences shown.

This assay addresses T1, EGFP-CD151 fusion protein (hCD151 in pEGFP-C1) (human) (UniProt P48509).
T1 sequence: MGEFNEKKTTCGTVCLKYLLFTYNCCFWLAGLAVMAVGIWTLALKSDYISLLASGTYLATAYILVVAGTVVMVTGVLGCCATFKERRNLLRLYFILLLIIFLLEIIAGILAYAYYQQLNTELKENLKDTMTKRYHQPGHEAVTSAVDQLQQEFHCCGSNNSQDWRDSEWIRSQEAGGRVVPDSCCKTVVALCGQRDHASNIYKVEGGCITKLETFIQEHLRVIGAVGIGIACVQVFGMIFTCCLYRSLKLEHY
Description: co-IP; EGFP-CD151 precipitated with GFP Selector beads (1 h, 4 °C) from lysates of HEK293T, Caco2 or HK-2 cells; immunoblot for JAM-A and GFP. In general terms: A western blot detects proteins with antibodies after separation by electrophoresis.

B1: endogenous JAM-A of Caco2 and HK-2 cells (protein, UniProt Q9Y624 28-299)
chain: SVTVHSSEPEVRIPENNPVKLSCAYSGFSSPRVEWKFDQGDTTRLVCYNNKITASYEDRVTFLPTGITFKSVTREDTGTYTCMVSEEGGNSYGEVKVKLIVLVPPSKPTVNIPSSATIGNRAVLTCSEQDGSPPSEYTWFKDGIVMPTNPKSTRAFSNSSYVLNPTTGELVFDPLSASDTGEYSCEARNGYGTPMTSNAVRMEAVERNVGVIVAAVLVTLILLGILVFGIWFAYSRGHFDRTKKGTSSKKVIYSQPSARSEGEFKQTSSFLV
B1: the binding result is recorded as “binds”.

B2: JAM-A in HEK293T cells (protein, UniProt Q9Y624 28-299)
chain: B1 chain
For the molecule B2, the binding result is “binds”.
